Source: article PMC9050340 (RSC Advances, 2020)

What was measured:
MTT antiproliferative = type: cell-based; conditions: human, MCF-10A cells (normal breast cell line)
MCF-7 = assay: MTT antiproliferative; type: cell-based; conditions: Homo sapiens, MCF7, read-out: Cytotoxicity (IC50 μM) MCF-7

CN[C@@H]1C[C@H]2O[C@@](C)([C@@H]1OC)n1c3ccccc3c3c4c(c5c6ccccc6n2c5c31)C(=O)NC4 [Staurosporine, reference compound]
IC50 at 48 h (MTT antiproliferative): 11.4 ± 0.57 µM | IC50 (MCF-7): 3.44 ± 0.17 µM
